Reference: patent US7390873B2, “Antimicrobial cationic peptides” (University of British Columbia, priority 1995, dated 2008)
At least one peptide structure holds a part that was inferred or is arguable (an end, a ring closure or a residue). Where no end group is shown, it is not given here.

System: E. coli, P. aeruginosa, S. aureus and C. albicans
Assay: Microbial killing curves (viable counts)
Format: cell-based
Conditions: 32 μg/ml; within 30 minutes; 10 mM HEPES buffer

ILKKWPWWPWRRK [CP-11] was tested, and the “Decrease of viable count” value was “at least 3 log orders”.
